From article PMC11588057
Like-named read-outs stand apart in the source and are kept apart here. Results are given in words; binding and its absence hold for the method and conditions named. Binding seen in cells or lysates may run through a third protein. Here binding means that the protein was enriched with, or labelled near, the bait; the list need not be complete. Blank lines part the entries; values can stand above or below the molecule they belong to.

Chains of the proteins cited; added tags and fusions are not shown. Lines headed by an entry give the natural chain unless they say otherwise; changes in a name come on top.
UniProt Q9VPB7: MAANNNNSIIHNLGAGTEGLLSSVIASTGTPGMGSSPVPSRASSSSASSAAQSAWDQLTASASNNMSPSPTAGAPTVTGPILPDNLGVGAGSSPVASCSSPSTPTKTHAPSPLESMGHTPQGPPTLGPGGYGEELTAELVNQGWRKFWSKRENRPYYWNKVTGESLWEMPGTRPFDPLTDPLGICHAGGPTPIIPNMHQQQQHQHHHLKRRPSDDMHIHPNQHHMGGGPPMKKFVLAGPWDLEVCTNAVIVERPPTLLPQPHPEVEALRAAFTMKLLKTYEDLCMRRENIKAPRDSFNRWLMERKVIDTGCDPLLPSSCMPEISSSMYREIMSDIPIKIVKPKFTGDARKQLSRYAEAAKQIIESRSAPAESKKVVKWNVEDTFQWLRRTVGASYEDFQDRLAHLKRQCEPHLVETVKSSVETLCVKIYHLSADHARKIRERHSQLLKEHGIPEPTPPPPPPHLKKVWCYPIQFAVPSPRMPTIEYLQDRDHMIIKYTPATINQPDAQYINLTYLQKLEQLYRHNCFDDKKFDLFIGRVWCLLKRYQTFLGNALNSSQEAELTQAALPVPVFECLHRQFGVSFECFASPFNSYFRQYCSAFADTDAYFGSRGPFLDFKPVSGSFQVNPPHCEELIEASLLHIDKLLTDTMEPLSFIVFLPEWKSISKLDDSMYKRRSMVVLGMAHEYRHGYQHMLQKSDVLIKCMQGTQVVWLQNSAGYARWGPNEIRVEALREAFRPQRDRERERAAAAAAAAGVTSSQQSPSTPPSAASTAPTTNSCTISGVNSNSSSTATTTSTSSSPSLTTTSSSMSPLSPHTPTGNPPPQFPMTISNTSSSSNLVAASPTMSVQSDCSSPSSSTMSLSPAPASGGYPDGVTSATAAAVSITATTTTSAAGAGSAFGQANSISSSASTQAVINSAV
UniProt P04052: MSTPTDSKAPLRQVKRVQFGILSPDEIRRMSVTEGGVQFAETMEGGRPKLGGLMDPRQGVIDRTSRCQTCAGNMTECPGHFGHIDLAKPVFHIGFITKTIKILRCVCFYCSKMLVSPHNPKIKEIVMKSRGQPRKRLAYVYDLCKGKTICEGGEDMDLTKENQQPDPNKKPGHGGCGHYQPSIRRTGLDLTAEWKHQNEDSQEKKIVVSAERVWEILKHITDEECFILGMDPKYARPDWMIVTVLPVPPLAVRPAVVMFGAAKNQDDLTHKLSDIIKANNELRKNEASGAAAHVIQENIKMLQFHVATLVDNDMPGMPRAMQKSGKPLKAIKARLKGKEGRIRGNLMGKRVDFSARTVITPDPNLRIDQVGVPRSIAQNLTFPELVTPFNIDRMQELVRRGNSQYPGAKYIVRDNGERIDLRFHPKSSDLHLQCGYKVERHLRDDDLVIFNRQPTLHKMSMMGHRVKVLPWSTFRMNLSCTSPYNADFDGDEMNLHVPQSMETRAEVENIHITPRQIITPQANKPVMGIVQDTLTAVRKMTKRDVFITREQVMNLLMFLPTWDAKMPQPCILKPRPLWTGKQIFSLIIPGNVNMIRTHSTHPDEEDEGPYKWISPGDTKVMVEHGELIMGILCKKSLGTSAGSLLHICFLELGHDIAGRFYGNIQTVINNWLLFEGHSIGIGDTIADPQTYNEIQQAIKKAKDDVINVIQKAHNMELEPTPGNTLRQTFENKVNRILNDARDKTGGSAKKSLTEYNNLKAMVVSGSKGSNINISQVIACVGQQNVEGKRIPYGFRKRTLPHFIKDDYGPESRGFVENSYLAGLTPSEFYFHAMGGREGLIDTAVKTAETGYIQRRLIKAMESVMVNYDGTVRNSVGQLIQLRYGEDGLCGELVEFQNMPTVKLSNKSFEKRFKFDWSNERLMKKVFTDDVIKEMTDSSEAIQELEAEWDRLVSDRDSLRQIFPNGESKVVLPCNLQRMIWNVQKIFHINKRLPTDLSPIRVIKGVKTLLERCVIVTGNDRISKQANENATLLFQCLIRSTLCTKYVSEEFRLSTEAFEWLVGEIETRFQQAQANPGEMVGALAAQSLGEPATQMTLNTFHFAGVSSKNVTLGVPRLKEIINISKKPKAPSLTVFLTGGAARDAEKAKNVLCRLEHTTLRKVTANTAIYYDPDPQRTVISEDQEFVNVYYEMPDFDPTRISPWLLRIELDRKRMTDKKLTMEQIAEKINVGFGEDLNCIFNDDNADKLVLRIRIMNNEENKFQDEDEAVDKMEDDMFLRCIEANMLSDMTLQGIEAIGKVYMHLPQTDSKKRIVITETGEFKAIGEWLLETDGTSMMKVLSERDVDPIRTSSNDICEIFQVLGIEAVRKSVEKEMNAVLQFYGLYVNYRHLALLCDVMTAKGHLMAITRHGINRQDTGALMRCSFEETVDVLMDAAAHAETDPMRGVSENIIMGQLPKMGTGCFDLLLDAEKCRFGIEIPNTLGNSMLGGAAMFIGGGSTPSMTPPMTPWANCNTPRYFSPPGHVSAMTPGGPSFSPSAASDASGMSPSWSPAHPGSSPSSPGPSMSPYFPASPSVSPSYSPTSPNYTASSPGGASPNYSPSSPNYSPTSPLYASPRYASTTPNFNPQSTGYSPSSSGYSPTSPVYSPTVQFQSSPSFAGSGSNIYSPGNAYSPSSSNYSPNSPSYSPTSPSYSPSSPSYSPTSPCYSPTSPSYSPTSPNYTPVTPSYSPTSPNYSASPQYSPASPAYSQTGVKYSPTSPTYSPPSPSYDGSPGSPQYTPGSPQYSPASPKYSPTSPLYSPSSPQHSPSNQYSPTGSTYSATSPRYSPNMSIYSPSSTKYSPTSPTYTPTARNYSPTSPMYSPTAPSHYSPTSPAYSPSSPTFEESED
UniProt P08985: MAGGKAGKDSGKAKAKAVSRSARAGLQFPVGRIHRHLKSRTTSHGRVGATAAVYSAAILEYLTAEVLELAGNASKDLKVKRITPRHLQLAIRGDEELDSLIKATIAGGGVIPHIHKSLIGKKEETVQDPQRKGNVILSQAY

Legend:
[1] = molecular target: T1, endogenous GAGA factor (GAF) (Drosophila (endogenous in embryos)) (UniProt Q08605); test: affinity purification with mass spectrometry; co-IP of GAF from embryos at the 2 to 3 h stage, followed by mass spectroscopic analysis
T1 sequence: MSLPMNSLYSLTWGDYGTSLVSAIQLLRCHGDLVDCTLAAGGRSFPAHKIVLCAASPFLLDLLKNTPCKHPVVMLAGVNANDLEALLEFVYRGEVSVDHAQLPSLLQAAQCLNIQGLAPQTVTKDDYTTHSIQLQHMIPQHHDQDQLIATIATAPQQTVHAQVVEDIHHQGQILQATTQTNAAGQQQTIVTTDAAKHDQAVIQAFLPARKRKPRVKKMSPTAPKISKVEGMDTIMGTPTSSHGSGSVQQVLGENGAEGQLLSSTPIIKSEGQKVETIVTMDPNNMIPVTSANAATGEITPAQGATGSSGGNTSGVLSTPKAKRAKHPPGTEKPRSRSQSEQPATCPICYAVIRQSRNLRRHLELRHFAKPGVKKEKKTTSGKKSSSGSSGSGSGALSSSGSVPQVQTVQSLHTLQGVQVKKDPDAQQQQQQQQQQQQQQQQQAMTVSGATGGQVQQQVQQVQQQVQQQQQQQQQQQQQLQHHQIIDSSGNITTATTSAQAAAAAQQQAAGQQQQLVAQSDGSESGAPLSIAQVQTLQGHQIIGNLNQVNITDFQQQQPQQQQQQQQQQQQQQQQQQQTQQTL

[2] = molecular target: GFP-tagged dPCIF1 (knock-in allele dPCIF1^GFP-KI) (Drosophila (endogenous in embryos)) (UniProt Q9VPB7); test: affinity purification with mass spectrometry; co-IP with anti-GFP antibody from dPCIF1^GFP-KI early embryos (0.5 to 1.5 h), followed by mass spectroscopic analysis
[3] = molecular target: GFP-tagged dPCIF1 (knock-in allele dPCIF1^GFP-KI) (Drosophila (endogenous in embryos)) (UniProt Q9VPB7); test: as above; remark: listed apart in the source

- binding [1]: binds
- binding [2]: binds
Molecule: RpII215 (Pol II subunit) (from UniProt P04052 1-1887)

- binding [2]: binds
Molecule: histone H2Av (from UniProt P08985 1-141)

- binding [1]: binds
- binding [3]: binds
B1: endogenous HIRA (protein, UniProt O17468 1-1047)
chain: MRLLKPAWVHHDDKQIFSVDIHKDCTKFATGGQGSDCGRVVIWNLLPVLSDKAEFDADVPKMLCQMDQHLACVNCVRWSQNGQNLASGSDDKLIMIWRKSAGSSGVFGTGGMQKNHESWKCFYTLRGHDGDVLDLAWSPNDVYLASCSIDNTVIIWDAQAFPHSVATLKGHTGLVKGVSWDPLGRFLASQSDDRSIKIWNTMNWSLSHTITEPFEECGGTTHILRLSWSPDGQYLVSAHAMNGGGPTAQIIEREGWKCDKDFVGHRKAVTCVRFHNSILSRQENDGSPSKPLQYCCLAVGSRDRSLSVWMTALQRPMVVIHELFNASILDLTWGPQECLLMACSVDGSIACLKFTEEELGKAISEEEQNAIIRKMYGKNYVNGLGKSAPVLEHPQRLLLPQGDKPTKFPLSNNNEANQRPISKQTETRTKDGKRRITPMFIPLHEDGPTSLSMNIVSSSGSSTTALTSCSAAIGTLPAAAPTESAATPLMPLEPLVSKIDLGRLDSRLKTQPASQRRQSLPFDPGQSNELLRTPRLEEHQSSTCSPSNLNVTATGKSEFVKAALDYRLHVSNGHLKTQHGMLAKVTASDSKEMLWEFYVGSPLVNLNLCEKYAMLCSLDGSMRLISMETGCPVFPAISLTSSAVHCAFSPDNSLVGVLTECGLLRIWDIAKKVVSLAAGCLELLNKHGTAAQFSVTNQGMPLIGFPSGNSYSYSTSLQSWLVLATKDAIMYHGIRGTLPRDMDQMQQKFPLLSMQASSQNYFSFTGSMELRHSESWQQCAKIRFIENQIKLCEALQSLDELQHWHKMLTFQLATHGSEKRMRVFLDDLLSMPEPGISQFVPKLELMQCVLDTLKPHSEWNRLHSEYTELLKECKSERQKDIFATPAPPQQKTASSAGSSPRSGEATGEEVTEKDGATAVAAAVVAGSRMAVTTGTSTTTTTTASSSLSSSGSSSSTSGSGSSSSSSSTSSLSVPQPAPSLSPEIQTLDSPTVCIDDEILSASSSLPPLDTSPVEVSPASTSGGAASTSPAASVAGSAPVSSSKTDQT
